Experimental data: PubChem BioAssay AID493014 (National Center for Advancing Translational Sciences (NCATS), 2011)
The other results are listed elsewhere or left out. Shown are side measurements of this screen, not its main read-out; they come without a call. The list favours compounds with an active or inconclusive main result. Potencies come from curve fits of mixed quality, noted in brackets.

Assay: qHTS Assay to Find Inhibitors of Chronic Active B-Cell Receptor Signaling
Settings: ABC-DLBCL IkBa-CBG/CBR reporter, luminescence ratio (green luciferase fused to IkBa over red control in TMD8 lymphoma cells), 4 h
Outline: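 Concentration-response series (up to 46 uM) were applied to TMD8 dual-reporter cells for 4 h at 37C with doxycycline. Green/red ratio, after filter-overlap correction, defined %Activity; red signal alone was normalised to basal cells and zero luminescence.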

[1] = measured here: CBR red luminescence, cell number
[2] = measured here: IkBa-CBG green luminescence

Question: For `Cc1ccccc1-c1nc(P(=O)(c2ccccc2)c2ccccc2)c(N2CCOCC2)o1`, which AC50 [1] is on record?
Answer: 0.891 µM [falling, partial curve, poor fit]

Question: With `CNC(=S)N1N=C(c2ccc(C)cc2)CC1c1ccc(OC)c(OC)c1` (stereo unspecified) as the molecule, how does the AC50 [1] read?
Answer: 29.1 µM [rising, single point]

Question: Which AC50 [1] does the source give for `COc1cccc(OC)c1C(=O)NC(=S)Nc1ccc(S(=O)(=O)Nc2nccs2)cc1` here?
Answer: 22.4 µM [falling, partial curve]

Question: Which AC50 [1] does the source give for `CCCC(C)C(=O)Nc1nc(C)c(-c2csc(Nc3cc(OC)ccc3OC)n2)s1` (stereo unspecified) here?
Answer: 1.41 µM [falling, full curve, poor fit]

Question: With `Cc1ccc(O)c(NC(=O)c2onc(C)c2Cl)c1` as the molecule, how does the AC50 [1] read?
Answer: 12.6 µM [rising, partial curve, poor fit]

Question: Which AC50 [1] does the source give for `CC(=O)Nc1cccc(OCC(=O)Nc2ccccc2)c1` here?
Answer: 32.6 µM [falling, single point]

Question: Which AC50 [1] does the source give for `CCCSc1nc(NCc2ccco2)c2c3c(sc2n1)COC(C)(CC)C3` (stereo unspecified) here?
Answer: 1.12 µM [falling, full curve, poor fit]

Question: Which AC50 [1] does the source give for `O=C(c1cccc2nccnc12)N1CCCC(Nc2ccc(F)c(F)c2)C1` (stereo unspecified) here?
Answer: 35.5 µM [rising, single point]

Question: With `CC(=O)C1=C(C)NC(SCC(=O)c2ccc(F)cc2)=C(C#N)C1CC(C)C` (stereo unspecified) as the molecule, how does the AC50 [1] read?
Answer: 0.731 µM [rising, partial curve]

Question: For `Cc1cc(C)n2nc(C(=O)N/N=C/c3ccccc3C)nc2n1`, which AC50 [1] is on record?
Answer: 11.2 µM [falling, partial curve, poor fit]

Question: Which AC50 [1] does the source give for `CCN(C(=O)C1CCCN(c2ncnc3c2nc2n3CCCCC2)C1)c1cccc(Cl)c1` (stereo unspecified) here?
Answer: 35.5 µM [falling, single point]

Question: For `CCCN1CCN(CCCNC(=O)Cn2nc(-c3ccc(Cl)cc3)ccc2=O)CC1`, which AC50 [1] is on record?
Answer: 23.1 µM [rising, partial curve, poor fit]

Question: Which AC50 [1] does the source give for `Cc1c(CCNC(=O)C(C)(C)C)sc2nc(-c3ccc(F)cc3)nn12` here?
Answer: 35.5 µM [falling, single point]

Question: Which AC50 [1] does the source give for `Cc1onc(-c2c(F)cccc2Cl)c1C(=O)Nc1nnc(C(F)(F)F)s1` here?
Answer: 3.55 µM [rising, single point]

Question: With `O=C(NCc1ccco1)C1CCN(C(=O)c2cc3sccc3n2Cc2ccc(F)cc2)CC1` as the molecule, how does the AC50 [1] read?
Answer: 29.1 µM [falling, single point]

Question: With `CC(C)(C)[C@@H]1C=C(C(=O)N2CCN(Cc3ccc4c(c3)OCO4)CC2)O[C@H](OCc2ccc(CO)cc2)C1` as the molecule, how does the AC50 [1] read?
Answer: 3.55 µM [rising, single point]

Question: With `CC(C)CNC(=S)NC(=O)c1ccc(F)cc1` as the molecule, how does the AC50 [1] read?
Answer: 20.6 µM [rising, partial curve, poor fit]

Question: With `COCCN(C(=O)C1CC1)c1nnc(-c2ccc(C)cc2)s1` as the molecule, how does the AC50 [1] read?
Answer: 7.94 µM [rising, partial curve, poor fit]

Question: Which AC50 [1] does the source give for `CN(CC(=O)Nc1cccc(F)c1)C(=O)c1ccc2c(c1)CC(c1ccccc1)OC2=O` (stereo unspecified) here?
Answer: 23.1 µM [falling, single point]

Question: For `OCCNc1c2ccccc2nc2c(F)c(F)c(F)c(F)c12`, which AC50 [1] is on record?
Answer: 11.6 µM [falling, partial curve, poor fit]

Question: With `COc1ccc(OC)c(N(CC(=O)N2CCCC2)S(C)(=O)=O)c1` as the molecule, how does the AC50 [1] read?
Answer: 1.58 µM [rising, full curve, poor fit]

Question: Which AC50 [1] does the source give for `COc1cc(/C=C2/SC(=S)N(c3ccccc3)C2=O)ccc1Oc1nc(N2CCOCC2)nc(N2CCOCC2)n1` here?
Answer: 7.31 µM [rising, partial curve, poor fit]

Question: Which AC50 [1] does the source give for `COc1cc2c(cc1OC)C(C1(O)CCCCC1)NCC2` (stereo unspecified) here?
Answer: 5.62 µM [falling, single point]

Question: And the AC50 [2]?
Answer: 2.82 µM [rising, single point]

Question: With `CC(C)c1ccc(-n2c(-c3ccccc3)c[n+]3c2CCc2ccccc2-3)cc1` as the molecule, how does the AC50 [1] read?
Answer: 11.2 µM [falling, partial curve, poor fit]

Question: With `O=C(CCCCn1c(=O)[nH]c2ccsc2c1=O)NCC1CCCO1` (stereo unspecified) as the molecule, how does the AC50 [1] read?
Answer: 25.9 µM [rising, partial curve, poor fit]

Question: For `CC(=O)Nc1cccc(-c2nc3ccc(NC(C)=O)cc3s2)c1`, which AC50 [1] is on record?
Answer: 12.6 µM [falling, single point]

Question: With `O=C(CCN1C(=O)/C(=C/c2ccc(F)cc2)SC1=S)NCCCn1ccnc1` as the molecule, how does the AC50 [1] read?
Answer: 17.8 µM [falling, partial curve, poor fit]

Question: For `O=C(Nc1cccc(F)c1)c1cc(S(=O)(=O)N2CCOCC2)cs1`, which AC50 [2] is on record?
Answer: 35.5 µM [rising, partial curve, poor fit]

Question: With `Cc1ccc(S(=O)(=O)NC(=O)c2cc(C)n(-c3cc(S(=O)(=O)N4CCOCC4)ccc3N3CCCC3)c2C)cc1` as the molecule, how does the AC50 [1] read?
Answer: 4.11 µM [falling, partial curve, poor fit]

Question: For `S=C(c1ccc(-c2ccc(Br)cc2)o1)N1CCOCC1`, which AC50 [1] is on record?
Answer: 0.891 µM [rising, full curve, poor fit]

Question: With `COc1cc(OC)cc(C(=O)NCCOc2ccccc2)c1` as the molecule, how does the AC50 [1] read?
Answer: 0.291 µM [rising, full curve, poor fit]

Question: Which AC50 [1] does the source give for `COc1ccc(Nc2nc3ccccc3n3cnnc23)cc1Cl` here?
Answer: 0.891 µM [rising, full curve, poor fit]

Question: With `Cc1cc2nccc(-c3ccc(OCCCF)cc3)n2n1` as the molecule, how does the AC50 [1] read?
Answer: 1 µM [rising, full curve, poor fit]

Question: With `CCOC(=O)C1=C(COC(=O)CNC(=O)c2cccc(C)c2)NC(=O)NC1C` (stereo unspecified) as the molecule, how does the AC50 [1] read?
Answer: 18.4 µM [rising, partial curve, poor fit]

Question: Which AC50 [1] does the source give for `O=c1c2c(nc3cc(-c4cccc(Cl)c4)[nH]n13)CCC2` here?
Answer: 4.47 µM [falling, full curve, poor fit]

Question: With `O=C(COC(=O)CCC(=O)c1cccs1)NCc1ccco1` as the molecule, how does the AC50 [1] read?
Answer: 29.1 µM [falling, single point]

Question: With `CC1CCCCN1C(=O)CSc1nnc(-c2c[nH]c3ccccc23)o1` (stereo unspecified) as the molecule, how does the AC50 [1] read?
Answer: 12.6 µM [falling, partial curve]

Question: With `CCC(CC)n1[nH]c(=O)cc1N` as the molecule, how does the AC50 [1] read?
Answer: 25.9 µM [falling, single point]

Question: Which AC50 [1] does the source give for `CCC(C)Sc1nc(O)c(Cc2ccccc2)c(=O)[nH]1` (stereo unspecified) here?
Answer: 25.9 µM [falling, single point]

Question: For `CCn1ccc(C(=O)Nc2sc3c(c2C(=O)OC)CCC3)n1`, which AC50 [1] is on record?
Answer: 2.82 µM [falling, full curve]
